Reference: publication PMC5240998
These are yes or no findings as the source states them, for the method shown.

Protein sequences, listed by entry. Tags and fused reporters are not part of them. Residues count along the entry.
UniProt P02769, residues 25-607: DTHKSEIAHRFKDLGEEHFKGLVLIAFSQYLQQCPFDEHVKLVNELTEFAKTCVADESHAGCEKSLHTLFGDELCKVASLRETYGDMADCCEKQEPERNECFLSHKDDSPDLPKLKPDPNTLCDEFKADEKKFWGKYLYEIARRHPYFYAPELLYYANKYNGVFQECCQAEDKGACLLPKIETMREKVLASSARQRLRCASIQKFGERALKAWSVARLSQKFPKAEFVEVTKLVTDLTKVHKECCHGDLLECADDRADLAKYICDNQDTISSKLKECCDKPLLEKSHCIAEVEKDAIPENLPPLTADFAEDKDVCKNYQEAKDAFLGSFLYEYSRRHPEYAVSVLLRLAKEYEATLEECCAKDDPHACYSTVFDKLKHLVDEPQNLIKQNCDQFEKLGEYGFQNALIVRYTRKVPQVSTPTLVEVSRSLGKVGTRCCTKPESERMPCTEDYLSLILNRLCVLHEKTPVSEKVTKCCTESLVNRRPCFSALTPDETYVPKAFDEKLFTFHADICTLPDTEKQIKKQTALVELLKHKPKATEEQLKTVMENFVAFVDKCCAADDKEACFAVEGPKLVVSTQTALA

Target: Bovine serum albumin (bovine) (UniProt P02769)
Experiment: ELISA; phage ELISA: VLPs, P-domain, S-domain (CT303) or BSA coated directly on the plate (VLPs 5 ug/mL in PBS); 5 × 10^10 cfu phage per well in 1% MPBS, 2 h RT; detected with anti-M13 HRP; signal as ratio to M13KE phage; both purified

Question: Which binding does the source give for LPSWYLAYQKII [NV-N-R5-1 phage-displayed 12-mer peptide] here?
Answer: no binding (tested: 5 × 10^10 cfu of phage per well)
